# Measured values reported in PubChem BioAssay AID1671190 (National Center for Advancing Translational Sciences (NCATS), 2021).
# Chains of the proteins cited; added tags and fusions are not shown. Lines headed by an entry give the natural chain unless they say otherwise; changes in a name come on top.
# UniProt P18054: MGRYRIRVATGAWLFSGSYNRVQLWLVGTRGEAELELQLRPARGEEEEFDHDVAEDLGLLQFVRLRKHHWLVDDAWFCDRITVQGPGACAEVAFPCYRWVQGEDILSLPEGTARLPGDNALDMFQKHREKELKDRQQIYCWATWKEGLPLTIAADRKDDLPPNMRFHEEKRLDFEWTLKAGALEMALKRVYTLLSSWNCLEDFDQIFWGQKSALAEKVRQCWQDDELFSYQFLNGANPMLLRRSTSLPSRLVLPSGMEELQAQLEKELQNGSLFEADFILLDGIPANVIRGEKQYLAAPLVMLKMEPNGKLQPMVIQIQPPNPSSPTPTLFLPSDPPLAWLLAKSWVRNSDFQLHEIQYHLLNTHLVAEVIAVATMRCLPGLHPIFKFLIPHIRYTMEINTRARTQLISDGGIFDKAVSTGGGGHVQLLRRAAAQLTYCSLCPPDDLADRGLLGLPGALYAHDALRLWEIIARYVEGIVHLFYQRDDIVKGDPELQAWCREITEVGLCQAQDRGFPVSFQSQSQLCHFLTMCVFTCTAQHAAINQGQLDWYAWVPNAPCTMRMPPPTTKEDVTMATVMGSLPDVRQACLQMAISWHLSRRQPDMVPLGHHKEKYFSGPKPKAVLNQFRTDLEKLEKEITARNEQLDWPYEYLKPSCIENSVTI
# Among all 580,000 compounds or so, about 6,100 (1.1%) were called active. This list was built around the results that the source calls inconclusive (neither active nor inactive); the mix of calls is not that of the screen. The call rests on the fitted dose curve; in most records, active means well fitted inhibition curve with a large enough effect; inconclusive means small, poorly fitted or top-dose-only effect, or another doubt; inactive means no such curve, though single readings can be large or run the other way. Potencies of inconclusive entries are doubtful fits and often do not repeat.
# Target: Polyunsaturated fatty acid lipoxygenase ALOX12 (Homo sapiens) (UniProt P18054)
# Test: Primary qHTS assay for inhibitors of human arachidonate 12S-lipoxygenase (ALOX12): Round 2
# Conditions: purified 12hLO, xylenol orange hydroperoxide absorbance; activity change, negative = inhibition: at 108 µM (top of the series) unless noted
# Outline: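 Hydroperoxide product was detected by ferrous iron/xylenol orange as the 573 to 405 nm absorbance ratio. Arachidonic acid at 40 uM (final) was turned over for 30 min at room temperature by 150 nM human 12hLO, pH 7.0 Hepes buffer, after 15 min compound preincubation.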
# On the % scale 0 is the no-effect control and ±100 the full control effect; potency means the concentration at half of the fitted maximal effect.
SMILES,Potency,"activity change, negative = inhibition"
Cn1ncc(Cl)c1C(=O)NC(=S)Nc1sc2c(c1C#N)CCCCC2,"inconclusive: 50.1 µM [inhibitor, partial curve, poor fit]",–
CN(C)c1cccc(C(=O)N/N=C/c2ccc(Cl)s2)c1,"inconclusive: 50.1 µM [inhibitor, partial curve, poor fit]",–
CC[C@H](C)[C@@H]1NC(=O)c2cc([N+](=O)[O-])cc(F)c2NCCCC[C@@H](C(N)=O)NC(=O)[C@H](CC(N)=O)NC1=O,"inconclusive: 12.6 µM [inhibitor, partial curve, poor fit]",–
Cc1ccc(S(=O)(=O)NCCc2nnc3ccc(SCC(=O)Nc4c(C)cc(C)cc4C)nn23)cc1,"inconclusive: 100 µM [inhibitor, partial curve, poor fit]",–
CC(C)(C)NC(=O)c1ccc(COc2cccc3c2OC(C)(C)C3)cc1,"inconclusive: 79.4 µM [inhibitor, single point]",–
COc1ccc(C(=O)Nc2ccc3oc(C)nc3c2)cc1,inactive,–
Cn1c(=O)cc(SCC(=O)NCCC2=CCCCC2)c2ccccc21,"inconclusive: 63.1 µM [inhibitor, partial curve, poor fit]",–
Cc1onc(-c2ccccc2)c1C(=O)N/N=C/c1ccc([N+](=O)[O-])s1,–,inconclusive: -34.3% [inhibitor]
Oc1ccc(-c2cnc3ccccc3n2)cc1,inactive,–
COC(=O)c1cccc(OC[C@@H](O)CN2CCC(C(O)(c3ccccc3)c3ccccc3)CC2)c1,"inconclusive: 44.7 µM [inhibitor, partial curve, poor fit]",–
Cn1cccc1/C=C(\C#N)c1ccc(Cl)cc1Cl,"inconclusive: 31.6 µM [inhibitor, partial curve, poor fit]",–
COc1ccc2[nH]c3c(=O)n(/N=C/[C@H]4C(C)C=C(C)CC4C)c(=O)[nH]c3c2c1 (some centres not stated),"inconclusive: 112 µM [inhibitor, single point]",–
Nc1nnnn1Cc1nnc(SCc2ccc(F)cc2)n1-c1ccccc1,"inconclusive: 31.6 µM [inhibitor, single point]",–
Cc1[nH]n(-c2ccccc2)c(=O)c1C(=O)c1cccc(F)c1,"inconclusive: 39.8 µM [inhibitor, partial curve]",–
Brc1ccc2nc(-c3ccco3)c(Cc3ccccc3)n2c1,active: 14.1 µM,–
Cc1ccc(-c2c(C(=O)Nc3ccccc3F)oc(=O)c3ccccc23)cc1,inactive,–
CC(C)NC(=O)C[C@@H]1CCNC[C@@H]1Cc1cc(-c2ccccc2)on1,"inconclusive: 28.2 µM [inhibitor, single point]",–

# Reprinted at random: 2 records from the list
SMILES,Potency,"activity change, negative = inhibition"
Cn1ncc(Cl)c1C(=O)NC(=S)Nc1sc2c(c1C#N)CCCCC2,"inconclusive: 50.1 µM [inhibitor, partial curve, poor fit]",–
Cc1ccc(S(=O)(=O)NCCc2nnc3ccc(SCC(=O)Nc4c(C)cc(C)cc4C)nn23)cc1,"inconclusive: 100 µM [inhibitor, partial curve, poor fit]",–
